The list shows a part of the results.
The sequences below were run against T1, OsSMF1 (Oryza sativa, UniProt Q6ZLB0 1-436) (assay: protein-binding microarray (RPBM); PBS, 2% BSA, 51.3 ng/ul salmon testes DNA, 50 uM zinc acetate, 200 nM TF, 25 C, 1 h; high values mean tight binding). Settings: protein: recombinant; tags: N-terminal polyhistidine and DsRed monomer fusion (pET32a); chain copies: 2; label: CyDye5-dUTP incorporated in the synthesized complementary strand; 3' TTTTT single-stranded linker to array surface; dsDNA, one strand shown.
T1 sequence: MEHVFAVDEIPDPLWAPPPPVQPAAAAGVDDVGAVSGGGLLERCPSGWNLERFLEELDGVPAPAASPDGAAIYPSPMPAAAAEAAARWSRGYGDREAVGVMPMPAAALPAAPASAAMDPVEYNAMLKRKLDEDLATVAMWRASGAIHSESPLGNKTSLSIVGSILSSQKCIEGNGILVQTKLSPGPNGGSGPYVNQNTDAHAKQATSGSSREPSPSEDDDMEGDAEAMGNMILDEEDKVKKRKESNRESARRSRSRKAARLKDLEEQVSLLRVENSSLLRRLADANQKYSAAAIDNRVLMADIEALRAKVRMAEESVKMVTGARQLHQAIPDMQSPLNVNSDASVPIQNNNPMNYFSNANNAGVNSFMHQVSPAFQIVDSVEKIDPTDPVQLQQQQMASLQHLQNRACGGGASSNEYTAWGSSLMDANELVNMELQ
Procedure, shortened: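 An Axon 4000B scanner gave the binding signal as per-feature fluorescence intensity in arbitrary units. This followed washing of a custom Agilent array that had been incubated for 1 h at 25 °C with 200 nM protein in PBS, 2% BSA, salmon testes DNA and 50 µM zinc acetate. The proteins were transcription factors fused at the N-terminus to polyhistidine and DsRed, expressed in E. coli BL21-CodonPlus and purified on Ni–NTA.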

| Sequence | binding signal |
| --- | --- |
| GCATGGGCAGCCTAGCATGCTTGCGTGGACAGTCTGGCGGCGGAGTCACCTAGTGCAG | 12000 fluorescence intensity (a.u.) |
| TTTTAAAATAGTGTGGGCCATGTGGGCCCCACATGTCAGTCGGAGTCACCTAGTGCAG | 3610 fluorescence intensity (a.u.) |
| ATCTCATGGGCCATGACGTATACAAACCTATATGGGCCTTCGGAGTCACCTAGTGCAG | 4070 fluorescence intensity (a.u.) |
| CTGGGTCACAGGTAGTCGCTTCATCGGCAGCCGCGTTGCCCGGAGTCACCTAGTGCAG | 29000 fluorescence intensity (a.u.) |
| GATCTTATTGTGGGCGGCTGGCTGACTGTTGCTGTTGTATCGGAGTCACCTAGTGCAG | 3580 fluorescence intensity (a.u.) |
| ACATCCGCGAAAAGGAGGAGGAAACAGGCGAAGCGAGGAGCGGAGTCACCTAGTGCAG | 3660 fluorescence intensity (a.u.) |
| AATAAGTAGCTAATGCTTATGTGTTACTCTACCATTGGATCGGAGTCACCTAGTGCAG | 5760 fluorescence intensity (a.u.) |
| ATGGACAAACATTACCAAACAGTCACTAATTCTACTACAACGGAGTCACCTAGTGCAG | 3560 fluorescence intensity (a.u.) |
| ATGGGCCTACTGTCAGTGGCATGAGAGGACCACCGTGTACCGGAGTCACCTAGTGCAG | 3240 fluorescence intensity (a.u.) |
| AGCTGCCACCGCCATTGGAGCGCCACGCCACGACACGCGCCGGAGTCACCTAGTGCAG | 4800 fluorescence intensity (a.u.) |
| GCATGCTCTTCTGATCTGTAATCTCAGGCTCTATTACTCTCGGAGTCACCTAGTGCAG | 3450 fluorescence intensity (a.u.) |
| GCACATGACTGTGCAAACGCTGTTCCTGATCTGAGTAAGACGGAGTCACCTAGTGCAG | 4170 fluorescence intensity (a.u.) |
| CACACGGGCACGCCGCGGCGGCCACGTTCTCTTCCCGCTCCGGAGTCACCTAGTGCAG | 3440 fluorescence intensity (a.u.) |
| GCCGCCGCCGCCACCATCGCCGGCGCGTCACAGTCCACCACGGAGTCACCTAGTGCAG | 5620 fluorescence intensity (a.u.) |
| TGACGGGGATGGTTAATATCTACTCACCATGAGGAATAAACGGAGTCACCTAGTGCAG | 21600 fluorescence intensity (a.u.) |
| CAGCAATCTGTCCCTGATCTGAGAATTTTAGACACTCGTACGGAGTCACCTAGTGCAG | 33900 fluorescence intensity (a.u.) |
| TTGAAACGTAACACTTGATATATGTATACATTATCCAACCCGGAGTCACCTAGTGCAG | 3150 fluorescence intensity (a.u.) |
| GCATATATGCCGCTACCTCAGCGCCAACGTACCTGGCGCTCGGAGTCACCTAGTGCAG | 3660 fluorescence intensity (a.u.) |
| AAACCAAGAAACGCAACTGAAGCGAGTGGGTGGAGCGAAGCGGAGTCACCTAGTGCAG | 27300 fluorescence intensity (a.u.) |
| ATTTTGCCTCCCTCATCTCTTGCCCTTGTGTGAATAACATCGGAGTCACCTAGTGCAG | 33300 fluorescence intensity (a.u.) |
| TAAATATGGACCCACGTGTTATCATGCACACGCCCACATCCGGAGTCACCTAGTGCAG | 3960 fluorescence intensity (a.u.) |

In another format: entries from further up.
Sequence,binding signal
GCATGCTCTTCTGATCTGTAATCTCAGGCTCTATTACTCTCGGAGTCACCTAGTGCAG,3450 fluorescence intensity (a.u.)
GCACATGACTGTGCAAACGCTGTTCCTGATCTGAGTAAGACGGAGTCACCTAGTGCAG,4170 fluorescence intensity (a.u.)
CACACGGGCACGCCGCGGCGGCCACGTTCTCTTCCCGCTCCGGAGTCACCTAGTGCAG,3440 fluorescence intensity (a.u.)
GCCGCCGCCGCCACCATCGCCGGCGCGTCACAGTCCACCACGGAGTCACCTAGTGCAG,5620 fluorescence intensity (a.u.)
TGACGGGGATGGTTAATATCTACTCACCATGAGGAATAAACGGAGTCACCTAGTGCAG,21600 fluorescence intensity (a.u.)
CAGCAATCTGTCCCTGATCTGAGAATTTTAGACACTCGTACGGAGTCACCTAGTGCAG,33900 fluorescence intensity (a.u.)
TTGAAACGTAACACTTGATATATGTATACATTATCCAACCCGGAGTCACCTAGTGCAG,3150 fluorescence intensity (a.u.)
GCATATATGCCGCTACCTCAGCGCCAACGTACCTGGCGCTCGGAGTCACCTAGTGCAG,3660 fluorescence intensity (a.u.)
AAACCAAGAAACGCAACTGAAGCGAGTGGGTGGAGCGAAGCGGAGTCACCTAGTGCAG,27300 fluorescence intensity (a.u.)

Remaining list, next part:

| Sequence | binding signal |
| --- | --- |
| TCGTCCCCGTCCACGCCGGCGCCTTCCTCGTCCCAAGGCGCGGAGTCACCTAGTGCAG | 3360 fluorescence intensity (a.u.) |
| TAAACTCACTGGATGGTCTGCTGCGTGGCGTGGATATCATCGGAGTCACCTAGTGCAG | 3650 fluorescence intensity (a.u.) |
| GTACGAGACTATGAACTGTATGAGTCACATGTTGAATATTCGGAGTCACCTAGTGCAG | 8000 fluorescence intensity (a.u.) |
| TAATCAGTCACACACACACCCCTCACACCAGCCGTGTCCACGGAGTCACCTAGTGCAG | 27300 fluorescence intensity (a.u.) |
| CGGGAGTTTGATACTTTTGGGAACAATTATTTGGAGAGGACGGAGTCACCTAGTGCAG | 3510 fluorescence intensity (a.u.) |
| CCCTATCCCCTCATCTCACTGCAGCTTTCCACTATACTACCGGAGTCACCTAGTGCAG | 27700 fluorescence intensity (a.u.) |
| AGTGCTTGGATCAGACATGGCCCAGCTCTGCCCAAGCCCACGGAGTCACCTAGTGCAG | 3550 fluorescence intensity (a.u.) |
| ACACAAGTCCTCCCGTACGTGGCCGTGGATATACAAACACCGGAGTCACCTAGTGCAG | 3420 fluorescence intensity (a.u.) |
| AGTGTATCTTGTCAGTATTAATTCCAGTCAGCCATGAATTCGGAGTCACCTAGTGCAG | 3490 fluorescence intensity (a.u.) |
| CCGTGGGTTCTATAAAGCATGACGATGTGTTTCAGCTGTACGGAGTCACCTAGTGCAG | 4800 fluorescence intensity (a.u.) |
| CCGAGGCCGAGACGGACACCGCGCCGCGCTGGTCAGCGACCGGAGTCACCTAGTGCAG | 3890 fluorescence intensity (a.u.) |
| TGAATTTAAACTCTCGCTGACATGCATAAACTTCATTCGTCGGAGTCACCTAGTGCAG | 3160 fluorescence intensity (a.u.) |
| GTGGAGTAGTGGCGCTTGTGCTTCCACGTCGCCACCAACCCGGAGTCACCTAGTGCAG | 9000 fluorescence intensity (a.u.) |
| TCAATCAATAGATCGAGCACACATCATCCTAGTCTTTCCTCGGAGTCACCTAGTGCAG | 5140 fluorescence intensity (a.u.) |
| GAGGAAATCATTTTGGTGCAGCGCAACCATTGATGCTTTTCGGAGTCACCTAGTGCAG | 3200 fluorescence intensity (a.u.) |
| GTTATTTTAACAAGTCAGCTTGCATTAATGAAAACTTCTGCGGAGTCACCTAGTGCAG | 4300 fluorescence intensity (a.u.) |
| ACAAATACTGATACATATACCTATACGTATGCGTCACCGTCGGAGTCACCTAGTGCAG | 8380 fluorescence intensity (a.u.) |
| CCACCTCCACCGACGCCGCCGTCGTGTCGCCGTCTCCGAGCGGAGTCACCTAGTGCAG | 5820 fluorescence intensity (a.u.) |
| GTCGAGTTCGCGCATGCGCCGCCGTGGCGACGACCTAGCTCGGAGTCACCTAGTGCAG | 4020 fluorescence intensity (a.u.) |
| AGGAGGGGACGTGCACGCCGCACCACCACCACCACCACCACGGAGTCACCTAGTGCAG | 3460 fluorescence intensity (a.u.) |
| TGGTATCTAGCAGTTAGTACCTCAGAAGTTAGAGGTCACACGGAGTCACCTAGTGCAG | 18900 fluorescence intensity (a.u.) |
